Drawing on PMC3009604, this text covers binding for three substances.

Protein sequences, listed by entry. Tags and fused reporters are not part of them. Residues count along the entry.
UniProt P11021, residues 19-654: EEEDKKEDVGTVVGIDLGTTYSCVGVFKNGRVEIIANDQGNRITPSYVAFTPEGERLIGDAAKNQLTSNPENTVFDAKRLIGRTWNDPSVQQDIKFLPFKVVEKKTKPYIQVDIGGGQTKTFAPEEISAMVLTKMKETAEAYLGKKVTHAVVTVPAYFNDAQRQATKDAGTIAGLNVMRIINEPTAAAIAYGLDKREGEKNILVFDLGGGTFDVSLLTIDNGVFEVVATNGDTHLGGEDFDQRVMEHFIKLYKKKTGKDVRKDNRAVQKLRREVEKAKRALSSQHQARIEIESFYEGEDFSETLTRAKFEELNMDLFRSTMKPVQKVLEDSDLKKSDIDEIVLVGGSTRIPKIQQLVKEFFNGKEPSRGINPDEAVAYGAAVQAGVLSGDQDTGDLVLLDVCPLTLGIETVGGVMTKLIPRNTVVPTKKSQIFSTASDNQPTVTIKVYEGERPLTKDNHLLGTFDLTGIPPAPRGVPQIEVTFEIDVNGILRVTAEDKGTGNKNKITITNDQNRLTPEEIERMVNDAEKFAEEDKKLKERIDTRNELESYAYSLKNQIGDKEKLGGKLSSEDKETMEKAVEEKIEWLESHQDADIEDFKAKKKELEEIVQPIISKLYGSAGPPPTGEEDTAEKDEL
UniProt P35579: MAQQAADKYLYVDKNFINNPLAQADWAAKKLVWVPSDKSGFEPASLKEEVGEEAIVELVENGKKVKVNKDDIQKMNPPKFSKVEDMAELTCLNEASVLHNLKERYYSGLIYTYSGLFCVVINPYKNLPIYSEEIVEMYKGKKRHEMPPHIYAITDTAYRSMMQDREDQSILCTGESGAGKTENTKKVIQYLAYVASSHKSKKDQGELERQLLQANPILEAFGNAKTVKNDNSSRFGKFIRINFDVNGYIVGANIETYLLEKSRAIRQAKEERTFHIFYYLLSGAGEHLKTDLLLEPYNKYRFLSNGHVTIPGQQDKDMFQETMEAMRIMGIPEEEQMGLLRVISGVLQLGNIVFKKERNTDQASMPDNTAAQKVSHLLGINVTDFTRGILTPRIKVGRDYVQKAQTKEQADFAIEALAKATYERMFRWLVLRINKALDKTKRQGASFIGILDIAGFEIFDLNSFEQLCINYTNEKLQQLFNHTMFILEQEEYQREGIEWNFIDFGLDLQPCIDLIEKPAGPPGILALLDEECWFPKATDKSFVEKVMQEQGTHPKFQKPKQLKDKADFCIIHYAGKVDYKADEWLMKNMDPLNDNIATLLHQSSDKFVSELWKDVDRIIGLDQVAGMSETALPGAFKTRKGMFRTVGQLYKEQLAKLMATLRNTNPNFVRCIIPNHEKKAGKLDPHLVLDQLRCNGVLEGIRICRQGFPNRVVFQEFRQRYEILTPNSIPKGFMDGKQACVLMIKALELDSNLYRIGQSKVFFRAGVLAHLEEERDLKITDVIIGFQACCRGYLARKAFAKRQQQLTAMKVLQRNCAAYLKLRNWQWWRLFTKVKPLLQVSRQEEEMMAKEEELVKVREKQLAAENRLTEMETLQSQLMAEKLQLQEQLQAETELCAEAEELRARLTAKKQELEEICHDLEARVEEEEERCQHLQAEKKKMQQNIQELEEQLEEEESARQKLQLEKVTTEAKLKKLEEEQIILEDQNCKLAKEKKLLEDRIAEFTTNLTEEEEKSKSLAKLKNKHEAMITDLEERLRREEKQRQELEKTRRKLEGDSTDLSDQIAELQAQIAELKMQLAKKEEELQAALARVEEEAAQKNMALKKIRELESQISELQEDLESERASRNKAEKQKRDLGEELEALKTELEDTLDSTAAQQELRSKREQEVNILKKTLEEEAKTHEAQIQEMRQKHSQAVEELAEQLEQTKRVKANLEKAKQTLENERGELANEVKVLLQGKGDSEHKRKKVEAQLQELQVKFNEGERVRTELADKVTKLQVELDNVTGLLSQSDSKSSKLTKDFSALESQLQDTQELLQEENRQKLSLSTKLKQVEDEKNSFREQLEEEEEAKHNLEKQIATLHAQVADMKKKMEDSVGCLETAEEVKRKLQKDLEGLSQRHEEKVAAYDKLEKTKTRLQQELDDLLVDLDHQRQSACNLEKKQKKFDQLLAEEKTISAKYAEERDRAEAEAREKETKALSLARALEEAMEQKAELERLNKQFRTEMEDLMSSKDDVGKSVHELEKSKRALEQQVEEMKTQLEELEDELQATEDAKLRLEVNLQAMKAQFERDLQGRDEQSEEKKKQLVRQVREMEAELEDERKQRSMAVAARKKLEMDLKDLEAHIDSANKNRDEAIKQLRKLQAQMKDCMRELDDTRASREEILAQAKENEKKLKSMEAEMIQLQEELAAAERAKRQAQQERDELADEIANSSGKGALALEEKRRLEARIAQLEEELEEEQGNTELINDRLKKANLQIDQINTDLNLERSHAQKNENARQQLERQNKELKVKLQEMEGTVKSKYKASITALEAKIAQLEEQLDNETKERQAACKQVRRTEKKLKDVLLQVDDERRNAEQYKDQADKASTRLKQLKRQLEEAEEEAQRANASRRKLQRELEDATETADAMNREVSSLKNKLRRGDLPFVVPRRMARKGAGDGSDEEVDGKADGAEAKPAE

No constants are given. Whether binding was seen depends on the method and setting. Binding seen in cells or lysates may run through a third protein. A yes stands for co-enrichment or nearness to the bait. Other partners may have been found.

The test addresses c-Cbl (human (endogenous in HMVEC-d)) (UniProt P22681). Description: affinity purification with mass spectrometry; HMVEC-d cells infected with KSHV for 1, 5 and 10 min; lysates immunoprecipitated with anti-c-Cbl antibody, SDS-PAGE, Coomassie blue, bands excised, trypsin digest, mass spectrometry.
On to “BiP protein (from UniProt P11021 19-654)”, for which the binding entry is “binds”. Next, “non-muscle myosin heavy chain IIA (from UniProt P35579 1-1960)”: “binds”. Take vimentin (from UniProt P08670 1-466): the binding result is “binds”.
